Hit rate of the full screen: of about 390,000 compounds, about 760 (0.19%) were called active. This list was built around the results that the source calls inconclusive (neither active nor inactive); the mix of calls is not that of the screen. The call rests on the fitted dose curve; in most records, active means well fitted inhibition curve with a large enough effect; inconclusive means small, poorly fitted or top-dose-only effect; inactive means flat fitted curve, though single readings scatter. Potencies beside an inconclusive call are fits to weak or partial responses and may not hold up.
assay: qHTS for Inhibitors of Vif-A3F Interactions: qHTS; conditions: HeLa A3F-eYFP + Vif (tagged APOBEC3F with the HIV-1 protein that degrades it), YFP fluorescence increase; series mostly up to 46.1 µM; further: nearly all actives have a fitted effect of over 65% in size
How it was run: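 HeLa cells stably expressing Vif plus C-terminally eYFP-tagged A3F were seeded, incubated overnight at 37 deg C, dosed with compound, incubated overnight again at 37 deg C. Yellow fluorescence (Ex 488/Em 500-530) reported blocked Vif-mediated A3F-eYFP degradation.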
Potency means the concentration at half of the fitted maximal effect.

Row | SMILES | Potency
1 | O=c1c2ccccc2[nH]c(=S)n1CCCN1CCN(c2ccccc2)CC1 | inconclusive: 35.5 µM [inhibitor, single point]
2 | CC(=O)Nc1sc(N/N=C/c2ccc(N(C)C)cc2)nc1-c1ccc(C)cc1 | inactive
3 | Cc1ccc(NC(=O)COc2ccccc2C=O)cc1Cl | inconclusive: 11.2 µM [inhibitor, partial curve, poor fit]
4 | O=C(CN(c1ccccn1)S(=O)(=O)c1ccccc1)N/N=C/c1cccc([N+](=O)[O-])c1 | inconclusive: 3.55 µM [inhibitor, single point]
5 | CSCC[C@H](NC(=O)N1CCn2c1nc1ccccc12)C(=O)NCc1ccco1 | inactive
6 | Cc1ccccc1C(=O)NC(=S)N(C)CCc1ccccn1 | inconclusive: 35.5 µM [inhibitor, single point]
7 | Cc1cccc(-n2c(SCC(=O)Nc3ccccc3Cl)nc3n[nH]c(C)c3c2=N)c1 | inactive
8 | COc1ccc2oc(C(=O)N(C)CCOc3ccccc3)c(C)c2c1 | inconclusive: 0.316 µM [inhibitor, full curve, poor fit]
9 | COc1cc2c(cc1OC)[C@@H](Cc1ccc(OCCC#N)cc1)N(C)CC2 | inconclusive: 35.5 µM [inhibitor, single point]
10 | Cc1cc2c(C)ccc(C)c2nc1SCC(=O)c1cccs1 | inconclusive: 28.2 µM [inhibitor, single point]
11 | O=C(N/N=C/c1cccs1)c1cncc(Br)c1 | inconclusive: 20 µM [inhibitor, single point]
12 | Cn1c(=O)[nH]c(=O)c2c1nc(N/N=C/C(Br)=C/c1ccccc1)n2CCO | inactive
13 | COc1ccc(/C=C(\C#N)c2nc(-c3ccc(Cl)c(Cl)c3)cs2)cc1OC | inconclusive: 35.5 µM [inhibitor, single point]
14 | Nc1nc(NCc2ccco2)nc(NCCO)c1[N+](=O)[O-] | inconclusive: 5.62 µM [inhibitor, single point]
15 | Cc1cc2oc(=O)cc(COC(=O)c3n[nH]c4ccccc34)c2cc1C | inconclusive: 35.5 µM [inhibitor, single point]
16 | CC(=O)Nc1ccc(Nc2c3c4c(cccc4n(C)c2=O)C(=O)c2ccccc2-3)cc1 | active: 8.91 µM
17 | CCCN1Cc2cccc(C(=O)NC(CC(=O)OCC)c3ccc(OCC)c(OC)c3)c2C1=O (stereo not drawn) | inconclusive: 22.4 µM [inhibitor, single point]
18 | CN=c1scc(-c2ccccc2F)n1/N=C/c1ccc(O)c(O)c1O | inconclusive: 3.55 µM [inhibitor, partial curve, poor fit]
19 | COc1cc(Cl)c(C)cc1Nc1nc2ccccc2nc1NS(=O)(=O)c1ccccc1 | inconclusive: 0.562 µM [inhibitor, full curve, poor fit]
20 | CCOc1ccc(N=C(NN)c2ccc3ccccc3n2)cc1 | inconclusive: 35.5 µM [inhibitor, single point]
21 | CCOc1ccc(C(=O)CCC(=O)Nc2ccc(C)cn2)cc1 | inconclusive: 35.5 µM [inhibitor, single point]
22 | Cc1cc(C)nc(NC2=NC3CCCCC3N2)n1 (stereo not drawn) | inconclusive: 6.31 µM [inhibitor, single point]

Gathered by group: those above containing an aryl methoxy group
Row | SMILES | Potency
8 | COc1ccc2oc(C(=O)N(C)CCOc3ccccc3)c(C)c2c1 | inconclusive: 0.316 µM [inhibitor, full curve, poor fit]
9 | COc1cc2c(cc1OC)[C@@H](Cc1ccc(OCCC#N)cc1)N(C)CC2 | inconclusive: 35.5 µM [inhibitor, single point]
13 | COc1ccc(/C=C(\C#N)c2nc(-c3ccc(Cl)c(Cl)c3)cs2)cc1OC | inconclusive: 35.5 µM [inhibitor, single point]
17 | CCCN1Cc2cccc(C(=O)NC(CC(=O)OCC)c3ccc(OCC)c(OC)c3)c2C1=O (stereo not drawn) | inconclusive: 22.4 µM [inhibitor, single point]
19 | COc1cc(Cl)c(C)cc1Nc1nc2ccccc2nc1NS(=O)(=O)c1ccccc1 | inconclusive: 0.562 µM [inhibitor, full curve, poor fit]

Following part:

Row | SMILES | Potency
23 | O=C(CSc1nnc(NC(=O)c2c(F)cccc2F)s1)NCc1ccco1 | inactive
24 | CC(=O)c1sc(N/N=C2\CC3CC2C(C)C3(C)C)nc1C (stereo not drawn) | inconclusive: 11.2 µM [inhibitor, partial curve, poor fit]
25 | CCCCCC(=O)NC(=S)Nc1cccc(C(C)=O)c1 | inconclusive: 20 µM [inhibitor, partial curve, poor fit]
26 | S=C(NC1CCCCC1)NN(c1ccccc1)c1ccccc1 | inactive
27 | CCCCn1c(=O)c(CC(C)=O)nc2ccccc21 | inconclusive: 8.91 µM [inhibitor, full curve, poor fit]
28 | COc1ccccc1CC(=O)Nc1ccccc1O | inactive
29 | NS(=O)(=O)c1ccc(Sc2ccccn2)c([N+](=O)[O-])c1 | inactive
30 | FC(F)(F)c1cc(-c2ccco2)nc(NCCc2ccccc2)n1 | inconclusive: 35.5 µM [inhibitor, partial curve, poor fit]
31 | Cc1ccc(NC(=O)C2CCN(S(=O)(=O)c3ccccc3)CC2)cc1 | inconclusive: 3.16 µM [inhibitor, single point]
32 | O=C(CN1C(=O)COc2ccc(S(=O)(=O)N3CCOCC3)cc21)N1CCN(c2cccc(C(F)(F)F)c2)CC1 | inactive
33 | CN(C)/C=N/c1nc2nccc(-c3ccc(Cl)cc3)n2n1 | inconclusive: 0.562 µM [inhibitor, full curve, poor fit]
34 | COc1ccc(/C(=N/Nc2ncnc3ccccc23)C(=O)O)cc1 | inconclusive: 6.31 µM [inhibitor, single point]
35 | Cc1ccc(OCC(=O)Nc2cc(Cl)ccc2-n2cncn2)c(C)c1 | inconclusive: 25.1 µM [inhibitor, single point]
36 | CCSc1oc(-c2ccc(F)cc2)nc1S(=O)(=O)c1ccc(C)cc1 | inactive
37 | COc1ccc(N(CC(=O)NC2CCCCCC2)S(=O)(=O)c2c(C)nn(C)c2C)cc1 | inconclusive: 12.6 µM [inhibitor, single point]
38 | Cc1ccc2c(n1)sc1c(-c3ccc(Br)cc3)c(C#N)c(N)nc12 | inconclusive: 35.5 µM [inhibitor, single point]
39 | O=C(Nc1ccccc1N1CCCCC1)c1cc(S(=O)(=O)N2CCOCC2)ccc1Cl | inconclusive: 17.8 µM [inhibitor, partial curve, poor fit]
40 | CCOc1ccccc1N=NC1C(=O)N(C(N)=S)N=C1C (stereo not drawn) | inconclusive: 0.562 µM [inhibitor, partial curve, poor fit]
41 | COc1cc2c(cc1OC)C(c1cc3cc4c(cc3[nH]c1=O)OCO4)N(C(=O)C(C)C)CC2 (stereo not drawn) | inactive
42 | O=C(Cn1cc(/C=C\[N+](=O)[O-])c2ccccc21)Nc1ccccc1 | inconclusive: 11.2 µM [inhibitor, partial curve, poor fit]
43 | COc1cc2nc(=S)n3[nH]c(COc4ccccc4C)nc3c2cc1OC | inactive
